PubChem BioAssay AID602196 | INSERM – 2012

Purpose: 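Knock-downs that protect lung cancer cells from cisplatin or sensitise them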
Cell system: human A549 lung cancer cells
Reagents: siRNA pair against human genes
Duration: 48 h transfection before cisplatin; time from cisplatin to read-out not stated
Treatment: cisplatin at a dose killing half of control-siRNA cells; exact dose and duration not given
Measured: 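Shift in cisplatin death relative to control siRNA, from -50 (all cells die) to +50 (no cells die); siRNAs harmful on their own scored 0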
Reading the numbers: two-siRNA summed score (-2 to +2): higher = both siRNAs protect from cisplatin killing; -2 means both sensitise; mean protection from cisplatin (shift in death) and protection from cisplatin (shift in death), siRNA C and protection from cisplatin (shift in death), siRNA D: higher = protection from cisplatin killing
Rule for the call: 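siRNAs harmful alone (LDH or WST-1) get 0; others get +1 for less and -1 for more cisplatin killing; genes are active when the two siRNAs give the same sign, summing to ±2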
Meaning of the calls: active = both siRNAs shift cisplatin killing the same way; inactive = no consistent shift, or siRNA harmful alone
Here is a random part of about 23,000 reagents tested. 455 of them (2%) count as active. 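Active includes both protection and sensitisation; some change values fall well beyond the stated -50 to +50 range.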 Entries without a mark were called inactive. No sequences are given here. The record does not give: the amount of reagent.

target | two-siRNA summed score (-2 to +2) | mean protection from cisplatin (shift in death) (%) | protection from cisplatin (shift in death), siRNA C (%) | protection from cisplatin (shift in death), siRNA D (%)
CCDC6 | 0 | 8.1 | 7.9 | 8.2
MPRIP | 0 | 2.8 | 5.2 | 0.4
SEMA6B | 1 | 27.3 | 23.6 | 31
LOC401606 | 1 | 9 | 4 | 13.9
MAOB | 0 | -10.9 | -16 | -5.9
LINC00544 | 1 | 14.1 | 0.4 | 27.8
QTRT1 | 0 | -3.9 | 5.5 | -13.3
MED24 | -2 (active) | -19.4 | -12.8 | -26
PDHA1 | -1 | -26.5 | -35.9 | -17.2
FLJ16686 | 0 | 2.7 | 6.6 | -1.3
TMEM170A | 0 | 10.7 | 18.7 | 2.7
NR5A2 | -1 | -0.6 | -9.9 | 8.8
LOC392993 | 1 | 14.6 | 17.4 | 11.7
MLF1 | 0 | 6.6 | 23.1 | -9.9
LOC442279 | 0 | 14.2 | 15 | 13.4
LOC401336 | 0 | 7.1 | 2.7 | 11.4
GPC1 | 0 | -13.6 | -15.7 | -11.5
LDHAL6A | 0 | 12 | 4.9 | 19.1
LOC197317 | 0 | 15.2 | 12.6 | 17.8
CRACR2B | 0 | 13.9 | 7.5 | 20.4
LOC389813 | 0 | 19.1 | -6.2 | 44.3
ANKS1A | 0 | 6.8 | 14.7 | -1.1
LOC389650 | 0 | 5.7 | 2.6 | 8.9
LOC440134 | 1 | 4.7 | -1.7 | 11.2
PROP1 | -1 | -15.1 | -34.1 | 3.8
SLC35D3 | 0 | 6.2 | 17.9 | -5.6
CALB2 | 0 | 1.5 | 1.8 | 1.2
PTGER2 | -1 | -15.3 | -24.4 | -6.2
ABCA9 | -2 (active) | -32.5 | -38.1 | -26.8
LOC400010 | 0 | 0.2 | -1.8 | 2.3
CPT1C | 0 | 2.5 | 10.2 | -5.1
EGR2 | 0 | -5.9 | -4.5 | -7.2
DSCR4 | 0 | 6.2 | 5.1 | 7.3

5 entries from above, sorted by “two-siRNA summed score (-2 to +2)”, descending.
target | two-siRNA summed score (-2 to +2) | mean protection from cisplatin (shift in death) (%) | protection from cisplatin (shift in death), siRNA C (%) | protection from cisplatin (shift in death), siRNA D (%)
LOC197317 | 0 | 15.2 | 12.6 | 17.8
CRACR2B | 0 | 13.9 | 7.5 | 20.4
LOC389813 | 0 | 19.1 | -6.2 | 44.3
ANKS1A | 0 | 6.8 | 14.7 | -1.1
LOC389650 | 0 | 5.7 | 2.6 | 8.9

The listing continues:
target | two-siRNA summed score (-2 to +2) | mean protection from cisplatin (shift in death) (%) | protection from cisplatin (shift in death), siRNA C (%) | protection from cisplatin (shift in death), siRNA D (%)
ANKRD33 | 0 | 12.6 | 14.8 | 10.5
LOC389651 | 1 | 9.4 | 14.5 | 4.4
DUS4L | 0 | -2.3 | -1.8 | -2.8
POTEA | 1 | 17 | 28 | 6
SPNS3 | 0 | 2.6 | -7.5 | 12.7
LOC401057 | 0 | 6.8 | 5.5 | 8.2
WDTC1 | 0 | 15.6 | 13.7 | 17.4
FOS | 0 | 8.1 | 3.9 | 12.3
RIC3 | 0 | 4.1 | -0.3 | 8.4
SPMIP6 | 0 | -5.9 | -11.7 | -0.1
MTSS2 | 0 | 16.3 | 25.8 | 6.8
RAD51C | 1 | 17.6 | 18.7 | 16.6
LOC441845 | 0 | 7 | 5.3 | 8.7
FABP4 | 0 | 0.9 | 3.1 | -1.3
LOC340414 | 0 | 7.4 | 7.8 | 7
LOC388789 | 1 | 18.5 | 28 | 9.1
MINK1 | 1 | 11.3 | 4 | 18.5
ATP6V1C1 | 2 (active) | 12.9 | 7.5 | 18.3
LSM12 | -1 | 4.8 | 21.1 | -11.4
IL1B | 0 | 19 | 9.2 | 28.8
TM4SF18 | 0 | 5.9 | 7.6 | 4.3
TSPAN16 | 0 | -12 | -12.2 | -11.8
DNAJC15 | 0 | 7.3 | 7.1 | 7.4
LOC440820 | 1 | 14.7 | 9.5 | 20
